The list shows a part of the results.
Target: OsWRKY34 (Oryza sativa, UniProt Q0JBA9 1-250)
Assay: protein-binding microarray (RPBM); PBS, 2% BSA, 51.3 ng/ul salmon testes DNA, 50 uM zinc acetate, 200 nM TF, 25 C, 1 h; high values mean tight binding
Conditions: protein: recombinant; tags: N-terminal polyhistidine and DsRed monomer fusion (pET32a); label: CyDye5-dUTP incorporated in the synthesized complementary strand; 3' TTTTT single-stranded linker to array surface; dsDNA, one strand shown
In short: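 Transcription factors, each fused N-terminally to a polyhistidine tag and DsRed, were expressed in E. coli BL21-CodonPlus and purified on Ni–NTA. A custom Agilent array was made double-stranded by primer extension with Cy5-dUTP and blocked with 2% BSA. It was incubated with 200 nM protein in PBS, 2% BSA, salmon testes DNA and 50 µM zinc acetate at 25 °C for 1 h, then washed. The binding signal is per-feature fluorescence intensity (arbitrary units) read on an Axon 4000B scanner.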

Protein sequences, listed by entry. Tags and fused reporters are not part of them.
UniProt Q0JBA9, entry or part of it: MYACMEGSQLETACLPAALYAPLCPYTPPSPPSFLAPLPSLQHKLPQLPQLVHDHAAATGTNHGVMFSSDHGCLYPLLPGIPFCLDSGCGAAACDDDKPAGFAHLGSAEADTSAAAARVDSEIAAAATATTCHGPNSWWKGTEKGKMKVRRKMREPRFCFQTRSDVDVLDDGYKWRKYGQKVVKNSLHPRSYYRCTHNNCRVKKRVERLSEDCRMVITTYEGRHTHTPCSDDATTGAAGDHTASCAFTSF

| Sequence | binding signal |
| --- | --- |
| ACCATCTATATACCTTCGGTGCATATCAATGCGAAAACACCGGAGTCACCTAGTGCAG | 9440 fluorescence intensity (a.u.) |
| GCCGGCCATGTCCGCCGCCCACGCCCACGCCCTGCAACGCCGGAGTCACCTAGTGCAG | 11100 fluorescence intensity (a.u.) |
| CTAGATTTTTTGGTGACATTTTTTAGTTGGTGTGCACGTGCGGAGTCACCTAGTGCAG | 10200 fluorescence intensity (a.u.) |
| TTTATGTTTCATATGCTTTCAGTGGTGCATTCTGTTTTTTCGGAGTCACCTAGTGCAG | 12000 fluorescence intensity (a.u.) |
| TTCGCGAGCTCTCCTGCCTCCGCGTCGTCTTGGAATTTTTCGGAGTCACCTAGTGCAG | 8820 fluorescence intensity (a.u.) |
| TTTTTTCTTTTCTTGTAACCCGTCTCCTGCTTATTGAAAACGGAGTCACCTAGTGCAG | 8680 fluorescence intensity (a.u.) |
| AAACATTATTTTCTCATCTCCTTTTAAATTTTATTTTTTTCGGAGTCACCTAGTGCAG | 11000 fluorescence intensity (a.u.) |
| CCCGCCCACTCACCCGCCCACGCGGCTGCCAGCCTACCAACGGAGTCACCTAGTGCAG | 8860 fluorescence intensity (a.u.) |
| AATCCATTTTTTGTCAGATTCCACACAACCACATCTTTTTCGGAGTCACCTAGTGCAG | 8160 fluorescence intensity (a.u.) |
| TCCACCACCACCACCACCACCACAACGGCCACCACAAGCGCGGAGTCACCTAGTGCAG | 9630 fluorescence intensity (a.u.) |
| TTTTTCCCCTTATTTTTTTTCTCAAAAATCCATTTCCCTCCGGAGTCACCTAGTGCAG | 8180 fluorescence intensity (a.u.) |
| ACGGTTTCGTTTTTGTAAAACGGCGCCCATTTTTTTCTCTCGGAGTCACCTAGTGCAG | 8200 fluorescence intensity (a.u.) |
| CTTGTTTCAGTGTTGACATTGGTTATTTCTCAATTCATTCCGGAGTCACCTAGTGCAG | 9170 fluorescence intensity (a.u.) |
| ACCGTTGCTAATTTGCTATATATGCGAGCTTGCTGATCGACGGAGTCACCTAGTGCAG | 8520 fluorescence intensity (a.u.) |
| CCTCTTCGGCCTCGCCGCGGCCTCCGCCTTGTCCGCGTCCCGGAGTCACCTAGTGCAG | 8880 fluorescence intensity (a.u.) |
| TAATAGTGTACGATCCGCCGGTCATCATCTTCCTTGACGGCGGAGTCACCTAGTGCAG | 8530 fluorescence intensity (a.u.) |
| CGAATGGTGTATCTTTTAAATTGTGTGGTACCTAGTTGGGCGGAGTCACCTAGTGCAG | 8950 fluorescence intensity (a.u.) |
| CCTTCGACCCGTCCCCTCACAAACGGCCGTTTCCCTCCCGCGGAGTCACCTAGTGCAG | 9230 fluorescence intensity (a.u.) |
| GCAGTTTTTTTCTATGGACTCCTACCAACTCGGCCAACCACGGAGTCACCTAGTGCAG | 9220 fluorescence intensity (a.u.) |
| CATTTTGACTGACGTGAATGGTGTATTTAGTTGTGGATATCGGAGTCACCTAGTGCAG | 9690 fluorescence intensity (a.u.) |
| ATGTTTTATTCTCAACTTATTATCTACTCCCTCCATTTCACGGAGTCACCTAGTGCAG | 8620 fluorescence intensity (a.u.) |
| TCCACAAGCATCTACCACCCACCACTCATCCGCAACCACACGGAGTCACCTAGTGCAG | 9500 fluorescence intensity (a.u.) |
| GGCGGATGGGAGATCTGGCGGCGGGGTTGGAGGAGGAGGACGGAGTCACCTAGTGCAG | 10700 fluorescence intensity (a.u.) |
| CATTATTTTGGTGTCATGTACATGTCCTCTCGCGATAACACGGAGTCACCTAGTGCAG | 11100 fluorescence intensity (a.u.) |
| TGGCTCAAAATCATGCGCAAGCCGTAATTTCACCTTTCGCCGGAGTCACCTAGTGCAG | 9350 fluorescence intensity (a.u.) |
| GGCGGCGGGGTGGTCGAGCGAGGGAGGAAGATTCGGAGCGCGGAGTCACCTAGTGCAG | 8120 fluorescence intensity (a.u.) |
| GCGCGCGTGTTCTCCTCGATCTCTCCGATCATCATCGCGTCGGAGTCACCTAGTGCAG | 8460 fluorescence intensity (a.u.) |

| Sequence | binding signal |
| --- | --- |
| CGACGACTCCGCCATCCACCCCGGGGACACCGCCCTCGTCCGGAGTCACCTAGTGCAG | 11200 fluorescence intensity (a.u.) |
| ACCAAACCTTTTCCCTGTACGTCTACCGTCTACGTGCACCCGGAGTCACCTAGTGCAG | 13900 fluorescence intensity (a.u.) |
| TGCGCGAGATTTCACTGTATCCCGTCGTGTCCCCGCGTGACGGAGTCACCTAGTGCAG | 8200 fluorescence intensity (a.u.) |
| GTAGGAGATCACAAGGTTTCATTTTCACTTTTGTTTGCTACGGAGTCACCTAGTGCAG | 9010 fluorescence intensity (a.u.) |
| CATGCAACTTTCAGAAACTCTTCATCTTCATCACACCTTTCGGAGTCACCTAGTGCAG | 8110 fluorescence intensity (a.u.) |
| CACGGCTACCTTCTTTGCTGGTATCACTCAAGCAGCCCTACGGAGTCACCTAGTGCAG | 8200 fluorescence intensity (a.u.) |
| CGCACACAGCTAGCTACTCGCTACTCCTCCTACATAGCCACGGAGTCACCTAGTGCAG | 8520 fluorescence intensity (a.u.) |
| ATTTTGTTTTTGCGGCAAGCATTATTTTTGGCTTCACTGACGGAGTCACCTAGTGCAG | 8160 fluorescence intensity (a.u.) |
| CTGCCTTAGTTTCAGTCCTCTTCGGCTTGAATTTTTTAAGCGGAGTCACCTAGTGCAG | 10200 fluorescence intensity (a.u.) |
| CCCTACCGTTAGGCATCTGTTAGTTCTGTTAGTCATACATCGGAGTCACCTAGTGCAG | 13000 fluorescence intensity (a.u.) |
| GAAAATTTACTCAATTTTTCACGCGCACACTTTCTAAACTCGGAGTCACCTAGTGCAG | 8460 fluorescence intensity (a.u.) |
| TTTCCCGGTATTTGGCTCTCTTTCTTTTTTCTCCTTTTCTCGGAGTCACCTAGTGCAG | 8350 fluorescence intensity (a.u.) |
| CAGGCCTGTCTTTGTTCTGTTTGTTTCATCTGTATGAAATCGGAGTCACCTAGTGCAG | 9280 fluorescence intensity (a.u.) |
| CATTTCTCTTGGATTGTTTATTGTCACCACTCGCCAGTCACGGAGTCACCTAGTGCAG | 11700 fluorescence intensity (a.u.) |
| CCTCCTTATTTTTGCACTTGCAAACTGCATTGTTTCACTTCGGAGTCACCTAGTGCAG | 11200 fluorescence intensity (a.u.) |
| TAATGGAGTGTTCTTGTTCATCTCGTCGTTGCAGCTAGCCCGGAGTCACCTAGTGCAG | 11000 fluorescence intensity (a.u.) |
| ATATAAAGTTTTTAGACCGTCCTATTTGACCCAGATGATACGGAGTCACCTAGTGCAG | 10500 fluorescence intensity (a.u.) |
| GACTACTTCGGCGCGGCTCTGTTCTCGTCGTTCGTGTTCTCGGAGTCACCTAGTGCAG | 9160 fluorescence intensity (a.u.) |
| TTAATACCTGGTCTCACCTGTCATACACACATTACGTCTTCGGAGTCACCTAGTGCAG | 11100 fluorescence intensity (a.u.) |
| GCTAACTAGCAATATTTTCCTTTTTTCTGGTAGGTTTTTTCGGAGTCACCTAGTGCAG | 10900 fluorescence intensity (a.u.) |
| CCTCTAGCTACCCACTGCCCTCTTTATTTCCTAACTCCAACGGAGTCACCTAGTGCAG | 9040 fluorescence intensity (a.u.) |
| GTGTCCATGTCCAGTCCTTTGGTTTTGCAACATGTGGTGGCGGAGTCACCTAGTGCAG | 8870 fluorescence intensity (a.u.) |
| GTATTGAGGGCTTAATCGTGGTCGTGGGATATTATTTCATCGGAGTCACCTAGTGCAG | 8390 fluorescence intensity (a.u.) |
| ACGAATGGTCAAACACATGCTAAAAAGTCAACTGTGTCAACGGAGTCACCTAGTGCAG | 9350 fluorescence intensity (a.u.) |
| GCTGTATGCATATGTATGCCTGTATCTGTATCGACAAGGCCGGAGTCACCTAGTGCAG | 9150 fluorescence intensity (a.u.) |
| GACCGCCACTCTGCACATCCTATCTTTCGGGTCGAATTTACGGAGTCACCTAGTGCAG | 11400 fluorescence intensity (a.u.) |
| CTCGCCACCAAATCCTCCATAGTCCACACCCCACCACCACCGGAGTCACCTAGTGCAG | 8170 fluorescence intensity (a.u.) |

Rewritten with tabs: entries from further up.
Sequence	binding signal
ATATAAAGTTTTTAGACCGTCCTATTTGACCCAGATGATACGGAGTCACCTAGTGCAG	10500 fluorescence intensity (a.u.)
GACTACTTCGGCGCGGCTCTGTTCTCGTCGTTCGTGTTCTCGGAGTCACCTAGTGCAG	9160 fluorescence intensity (a.u.)
TTAATACCTGGTCTCACCTGTCATACACACATTACGTCTTCGGAGTCACCTAGTGCAG	11100 fluorescence intensity (a.u.)
